Results of single-concentration screens

Source: ChEMBL document CHEMBL3988442, “University of Dundee, Small-Polar-MMV Screening Library” (2021).

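Assay of Toxoplasma gondii numbers, read through their beta-galactosidase reporter with a colour substrate. Concentration: 50 µM. The record gives no direction; the compounds picked for IC50 retests had high values, so higher reads as fewer parasites. Size under these conditions: about 18,000 compounds, about 170 of them at 50% or above in at least one test.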

The filed quantity is “Percent Effect” (%).
The record does not define 0% and 100%; most values in the screen are far below 50% and negative numbers occur (in some assays of this library far below -100).
The compounds are a random part of those screened.

Compound,Percent Effect
CN(C)C(=O)CN1CCC(CN)CC1,-3.348
CN(C)CC(N)c1ccco1 (centres unmarked),1.407
Cc1cc(C(=O)NCc2ccc(F)cc2)[nH]n1,3.466
CCCS(=O)(=O)NC(Cc1ccccn1)[C@H]1C[C@@H](O)C1 (some centres unmarked),21.56
Cc1nc(CN(C)CC2CCN(CC(C)O)CC2)no1 (centres unmarked),1.045
CNCC(=O)NC(C)c1nc(-c2ccc(Br)cc2)no1 (centres unmarked),0.3006
NCCc1ccc(-n2cccn2)cc1,44.4
COc1ccc(CCN)c(Cl)c1OC,-2.383
Cc1nnc(SCC=Cc2ccccc2)n1CC(N)=O,-29.23
CCN1CCN(CCC(=O)Nc2ccccc2C)CC1,-2.124
OCCNC1CCN(c2ncc(Cl)cn2)CC1,-8.636
Cc1cc(Br)cn(CC(O)COC(C)C)c1=O (centres unmarked),-28.5
CCc1nnc(NC(=O)c2ccnn2C)s1,-16.63
CCCOc1cccc(NC(=O)C(C)n2cncn2)c1 (centres unmarked),3.564
COc1ccc(CN)c(F)c1,0.131
CC1CCCN(CC(=O)Nc2ccccc2C(N)=O)C1 (centres unmarked),-6.455
Cc1ccc(NC(=O)CN(C)C2CC[S+]([O-])CC2)cc1 (centres unmarked),-6.954
Cc1ccc2oc(CNC(C)(CO)CO)cc2c1,6.054
COc1ccc(Cl)cc1-n1c(CCN)n[nH]c1=O,-9.92
O=C(CCn1cnnn1)NCc1cnn2ccccc12,-11.36
Cc1cc[nH]c(=O)c1,23.02
Cc1cc(N2CCC2c2ccccc2)n2ncnc2n1 (centres unmarked),-6.16
CN1C(=O)C[C@@H](C(N)=O)[C@@H]1c1cccc(Cl)c1,-4.625
CCn1nc(C(C)C)cc1C(=O)N1CCC(N)C1 (centres unmarked),-6.14
Cc1ccc2ccc(N)nc2n1,-37.22
CNC(=O)CC(C)N(C)Cc1nc(CSC)no1 (centres unmarked),-23.82
Cc1cc(C(=O)N2CCN(C(=O)C3CC3)CC2)c(C)o1,0.336
Cc1ccsc1CN(C)C(=O)NCCS(C)(=O)=O,5.196
CC(CN)(CO)Cc1cccs1 (centres unmarked),-3.652
CC(C)CN1CCC(NCCSc2nnnn2C)CC1,0.8227
O=C1NCCc2ccc(OC(F)(F)F)cc21,-37.1
CC(=O)NC(c1nc(-c2ccncc2)no1)C(C)C (centres unmarked),4.495
Cc1nnc2n1CC(N)CC2 (centres unmarked),6.679
CC[C@@H](CO)NCc1cnn(-c2ccc(F)cc2)c1,6.374
O=C1CCNc2cnccc2N1,-6.387
NC(=O)CC1CCN(C(=O)Cc2ccc(Cl)cc2)CC1,-12.88
O=C(CSC1=NCCN1)Nc1ccc(F)cc1,-6.024
CCN(CC)CC(=O)N(C)Cc1ccncc1,2.609
CN1C(=O)COc2cc(NS(=O)(=O)N(C)C)ccc21,28.02
CCn1nc(C)cc1C(=O)N1CCNC(=O)C1(C)C,1.148
Cc1cccc(C(=O)N[C@@H](C)C(N)=O)c1Br,24.72
CNCc1ncc(C)c(OC)c1C,5.527
COCCOCc1ccc(CN)cc1,-7.158
Cc1ccnc(NC(=O)CSc2nnc(N)s2)n1,4.781
CCS(=O)(=O)N1CCN(c2ccc(C)nn2)CC1,-3.058
CC(C)(O)COc1ccc(S(C)(=O)=O)cc1,2.063
N#Cc1c(F)cccc1NCCSCCCO,-4.691
CNCc1nc(-c2ccc(F)cc2)no1,41.11
COc1ccc(N(C)C(=O)c2cnn(C)c2)cc1F,3.596
COC(=O)N1CCC(NS(=O)(=O)CC(C)C)C1 (centres unmarked),12.04
c1cc(CSc2nnc(NCC3CCCO3)s2)on1 (centres unmarked),-2.259
NC(=O)CN(Cc1ccsc1)C1CC1,-2.835
CN1CCCN(CC(=O)NCCCc2ncc[nH]2)CC1,-15.47
CC(C#N)CNC(=O)c1c(O)cc(F)cc1F (centres unmarked),7.676
CC(N)c1ccccc1-n1cccn1 (centres unmarked),-14.66
CCS(=O)(=O)Nc1cccc(C(C)=O)c1,-26.24
O=C(NCc1cc(Br)cs1)N1CCC(O)CC1,1.087
CN(C)CCO[C@@H]1COCC[C@H]1NC1CSCCSC1,4.568
COC(=O)C(NC(=O)C1=NN(C)C(=O)CC1)C(C)(C)C (centres unmarked),-1.924
CN(CC(=O)Nc1ccc(Br)cn1)C1CCOC1=O (centres unmarked),6.897
NC[C@H](O)c1cccc(Cl)c1,14.41
Cc1cc(OCC(=O)NCc2ccccc2F)no1,-16.43
NC(=O)Cn1cc(N)cn1,-5.14
OC[C@H]1CN(Cc2c[nH]cn2)C[C@H]1CN1CCCCC1,8.525
CN1CCOC(C(=O)Nc2ncccc2Br)C1 (centres unmarked),2.438
COCCNS(=O)(=O)c1ccc2c(c1)CCC(=O)N2,-5.213
Cc1cc(C(=O)N2CCN(C)CC(O)C2)sc1C (centres unmarked),-3.725
CN1CCC(CCO)C1 (centres unmarked),-9.426
CC(NCc1cccc2c1OCCO2)c1ccncc1 (centres unmarked),-8.534
Cc1cc(C2CCC2)nc(N2CCNC(=O)C2)n1,-4.648
COc1ccc(CN2CCC(N)C2=O)c(OC)c1 (centres unmarked),14.51
CCC1CN(CCN2CCOCC2)CCN1CC(F)F (centres unmarked),15.97
CNCc1nc(-c2ccccc2)c[nH]1,-4.61
CC(C)(C)OC(=O)N1CCN(C(N)=O)CC1,-1.713
Cc1nc(CC(=O)NCCSc2nnnn2C)c(C)s1,-9.109
O=C(CCN1CCc2[nH]cnc2C1)NCc1cccs1,20.06
COc1csc(-c2cc(N)[nH]n2)c1,7.911
CCNC(=O)N1CCC(Nc2cccnc2)C1 (centres unmarked),-29.51
CCC(CO)N1CCN(c2cccc(C)n2)CC1 (centres unmarked),-1.331
CCc1ccc(S(=O)(=O)N(C)CC(N)=O)s1,-6.715
CCCNc1nnc(S(=O)(=O)CCCC#N)s1,23.47
CCn1ncc(N)c1C,-10.6
CC(=O)NCC(c1ccsc1)N(C)C (centres unmarked),4.761
CSCc1nc(CN)cs1,4.432
CC(C)NC(=O)NCCCNC(=O)C(C)C,-0.6129
OCC1CCN(C2CCCC2)C1 (centres unmarked),15.61
CCOc1ccc(S(=O)(=O)N[C@@H](C)c2cncs2)cn1,-10.44
CC(=O)Nc1ccc(C(=O)NCc2ccncc2)cc1,2.054